Among all 52,000 sequences or so, about 210 (0.4%) were called active.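 How the source made its calls: active means gene whose silencing raises cell survival under the drug, median off-target-corrected z-score across its silencing RNAs 2 or more; inactive means the rest.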 This is one part of the list.
Test: Resistance to Poly (ADP-Ribose) Polymerase inhibitor: Gene Identification via Genome-wide siRNA Screen
Conditions: mouse BRCA2 R2336H ES cells, olaparib, CellTiter-Glo viability; hits give high values
Method in brief: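 Genome-wide siRNA screen (3 siRNAs/gene, 20 nM) in mouse ES cells carrying hypomorphic BRCA2 R2336H; olaparib 500 nM added 48 h post-transfection, CellTiter-Glo viability 72 h later. Normalized to plate-median negative control; MAD z-scores, gene median, seed-adjusted.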

Sequence	z-score
GGCCAAUUAACUAUGAAUUTT against 4833405L16Rik	inactive: 0.764
GGGCUAGACAUCAUCACCATT against Trit1	inactive: -0.817
CCGGAAGACUGGUAUUCUCTT against Nr1h4	inactive: 2.66
CCAGCUGUCACAUGAAGUGTT against Fbxo38	inactive: 0.86
GGAAAAAGAUCUUGGAAGUTT against Rwdd2	inactive: 1.47
GCAGGUGAAACAAUCGCCUTT against Catnal1	inactive: 1.59
CCUUGAGGAACCAACAAAATT against Rarb	inactive: 1.44
GGCACAUGAGACAGCUUUUTT against 1810008O21Rik	inactive: -1.23
GGAGGCUAGACCUGUUUUUTT against 4932414J04	inactive: 1.3
CGUGGUUUGUCAAUGAAGGTT against Eprs	inactive: -2.54
GGAGGUGGAGUUCAUCUUUTT against Chrne	inactive: 2.3
GGGUGUCAUAUAUAUUGCUTT against Gpr83	inactive: 0.32
GGCUGAUAGGUGUAUCUGGTT against Trim11	inactive: -0.0217
GGACAUUUUCCGUAGAUUUTT against 2600011C06Rik	inactive: -2.5
CGGCAGACAGACCUAUGAUTT against Exosc9	inactive: -0.189
CCUCAACUCCCUGUCACACTT against Rnaseh2a	inactive: 1.24
GGAUGCUAUACAUUUCUACTT against Stip1	inactive: -0.971
GGGAGAAGUGUAACAAAUUTT against A830093M07	inactive: -0.264
CCAGGAACGCACUUUGUCATT against Zfp469	inactive: 2.46
GGAAUUUCUUAUCCUCAUGTT against Cyp2c29	inactive: -0.35
CCCGUGCUGAAGCUAAUAGTT against BC021917	inactive: -2.01
CCAUGACAUUUCCUAAGUUTT against B130022O04Rik	inactive: -2.2

Sequence	z-score
CGCAGGUGUACAUAGCAGUTT against C130050O18Rik	inactive: -0.34
CGAUGUCAUCUUAGCUACGTT against B3gnt6	inactive: 0.965
GGUGAUCAGACUAUCAGCUTT against Olfr1384	inactive: 0.19
GCCAAUCAAGCACUCGCUCTT against 4930401F20Rik	inactive: 0.688
CCUUUGAAAACCUACAAGUTT against Ppara	inactive: 0.237
GCGGCUUCAUUUCAAGCUGTT against Lnx2	inactive: 1.3
GCCAAUCAACUGAUGGCUUTT against Pax3	inactive: 0.675
GGAAACCUGUCCAGUUCUUTT against Slc38a5	inactive: -0.36
GGCUCUAUUCAAUGCUAUUTT against A130033B22	inactive: -0.554
GUCUGUCAUUUGUGGAAAUTT against Olfr1495	inactive: 0.191
GGCUUUUGCUGCUAGAGGUTT against BC059842	inactive: -0.371
GCAUGCUUAAGCCUAUAAATT against Ncstn	inactive: 0.0957
GGUGACCAACUCUAUCAGGTT against Pglyrp1	inactive: 0.189
GCCCAGAAUAGACAAACCGTT against 9230106L14Rik	inactive: -0.881
GGAGAAAGAAGCCUCUCCATT against B430216B18Rik	inactive: 0.871
GCGAGACUAUCAAAUCUAUTT against Gabra4	inactive: 0.85
GGAUAAGGAAGGAAUUCCUTT against Rps27a	inactive: -2.93
CCCUCAAGAGACCCAAAUUTT against Xrcc1	inactive: -2.81
GCCUUAGGGAGUGUUAAAATT against C630041L24Rik	inactive: -0.455
GGCCAUUAAAUUUAUCAACTT against Aldh3a1	inactive: 0.155
CCUUACCACUUGAAGAUGGTT against Ephx1	inactive: -0.995
GGUUUUGAAAUUCCAGAAUTT against 4632412I24Rik	inactive: 0.641

Sequence	z-score
GGAUGCAUAUUAAAGAAACTT against Gabrb3	inactive: -0.318
GCACGGUAUCUCGAAGUCGTT against 1700067I02Rik	inactive: 0.65
GCGAUUUCAUAAAGUAAACTT against 1110059G10Rik	inactive: 0.427
CCUCCUGACUACAAGAACUTT against Utp14a	inactive: 0.335
GGAGAUAAUGAAAACUGCUTT against 1700006C19Rik	inactive: 0.503
GGCGGCAAGCAACAACAAUTT against Ssbp1	inactive: 1.58
GGAAAAAGAGCUUUUGGUCTT against Piwil2	inactive: 1.41
GCAAGGUCCUUAACGGCAATT against Inpp1	inactive: 0.756
GGAUGAGGCGAUUGAGAUUTT against Clic6	inactive: -0.612
GCCUAUAGCACUGUGCCAUTT against 2810004A10Rik	inactive: 1.17
CCCAUGAAGAUUGUAAGUCTT against C78541	inactive: 0.134
GCCGAGUUACAUCGGUGAUTT against Nup93	inactive: 0.557
GCCUUUUUAACCAACACAUTT against Gphn	inactive: 1.08
GCUGGGAUGGUAUCGUUUCTT against Ripk2	inactive: -0.339
GCACCAAAUUCACUAGAGUTT against Cd24a	inactive: -0.279
GGCCAUGAACUUUGAAGAGTT against Uap1	inactive: 0.946
GGUUGAUGACAACAAGAAATT against Rps12	inactive: -2.95
CCAUUUGGGACUAUAGACGTT against Tnrc4	inactive: -0.467
GGCCUGGCACCUCAUAUUATT against 6030411K04Rik	inactive: -2.16
GGCCAGUCUGGGAUUUUUGTT against 1700084P21Rik	inactive: 0.642
GGCCAUUUGUAUGUGCACCTT against Tgfbr1	inactive: 2.08
GGAACAGCAUCGUAACUAUTT against 4732435N03Rik	inactive: -0.0465
